# Values of other authors in patent US6482837B1 (priority 1998, dated 2002).
# Conditions: human, in vivo; cited from earlier work
smiles,measurement,value
Cc1ccc(O)c([C@H](CCN(C(C)C)C(C)C)c2ccccc2)c1 [Tolterodine],dose after which altered nearpoint of vision was observed,12.8 mg
same,dose after which diminished stimulated salivation was observed,3.2 mg
same,dose after which increased heart rate was observed,6.4 mg
same,incidence of dry mouth,~9%
same,subjects reporting micturition difficulties,Six of 8
